Drawing on publication PMC8184923, this text covers binding for two substances.

Sequences of proteins named here, by UniProt entry; tags and fusion partners are left off.
UniProt Q13535: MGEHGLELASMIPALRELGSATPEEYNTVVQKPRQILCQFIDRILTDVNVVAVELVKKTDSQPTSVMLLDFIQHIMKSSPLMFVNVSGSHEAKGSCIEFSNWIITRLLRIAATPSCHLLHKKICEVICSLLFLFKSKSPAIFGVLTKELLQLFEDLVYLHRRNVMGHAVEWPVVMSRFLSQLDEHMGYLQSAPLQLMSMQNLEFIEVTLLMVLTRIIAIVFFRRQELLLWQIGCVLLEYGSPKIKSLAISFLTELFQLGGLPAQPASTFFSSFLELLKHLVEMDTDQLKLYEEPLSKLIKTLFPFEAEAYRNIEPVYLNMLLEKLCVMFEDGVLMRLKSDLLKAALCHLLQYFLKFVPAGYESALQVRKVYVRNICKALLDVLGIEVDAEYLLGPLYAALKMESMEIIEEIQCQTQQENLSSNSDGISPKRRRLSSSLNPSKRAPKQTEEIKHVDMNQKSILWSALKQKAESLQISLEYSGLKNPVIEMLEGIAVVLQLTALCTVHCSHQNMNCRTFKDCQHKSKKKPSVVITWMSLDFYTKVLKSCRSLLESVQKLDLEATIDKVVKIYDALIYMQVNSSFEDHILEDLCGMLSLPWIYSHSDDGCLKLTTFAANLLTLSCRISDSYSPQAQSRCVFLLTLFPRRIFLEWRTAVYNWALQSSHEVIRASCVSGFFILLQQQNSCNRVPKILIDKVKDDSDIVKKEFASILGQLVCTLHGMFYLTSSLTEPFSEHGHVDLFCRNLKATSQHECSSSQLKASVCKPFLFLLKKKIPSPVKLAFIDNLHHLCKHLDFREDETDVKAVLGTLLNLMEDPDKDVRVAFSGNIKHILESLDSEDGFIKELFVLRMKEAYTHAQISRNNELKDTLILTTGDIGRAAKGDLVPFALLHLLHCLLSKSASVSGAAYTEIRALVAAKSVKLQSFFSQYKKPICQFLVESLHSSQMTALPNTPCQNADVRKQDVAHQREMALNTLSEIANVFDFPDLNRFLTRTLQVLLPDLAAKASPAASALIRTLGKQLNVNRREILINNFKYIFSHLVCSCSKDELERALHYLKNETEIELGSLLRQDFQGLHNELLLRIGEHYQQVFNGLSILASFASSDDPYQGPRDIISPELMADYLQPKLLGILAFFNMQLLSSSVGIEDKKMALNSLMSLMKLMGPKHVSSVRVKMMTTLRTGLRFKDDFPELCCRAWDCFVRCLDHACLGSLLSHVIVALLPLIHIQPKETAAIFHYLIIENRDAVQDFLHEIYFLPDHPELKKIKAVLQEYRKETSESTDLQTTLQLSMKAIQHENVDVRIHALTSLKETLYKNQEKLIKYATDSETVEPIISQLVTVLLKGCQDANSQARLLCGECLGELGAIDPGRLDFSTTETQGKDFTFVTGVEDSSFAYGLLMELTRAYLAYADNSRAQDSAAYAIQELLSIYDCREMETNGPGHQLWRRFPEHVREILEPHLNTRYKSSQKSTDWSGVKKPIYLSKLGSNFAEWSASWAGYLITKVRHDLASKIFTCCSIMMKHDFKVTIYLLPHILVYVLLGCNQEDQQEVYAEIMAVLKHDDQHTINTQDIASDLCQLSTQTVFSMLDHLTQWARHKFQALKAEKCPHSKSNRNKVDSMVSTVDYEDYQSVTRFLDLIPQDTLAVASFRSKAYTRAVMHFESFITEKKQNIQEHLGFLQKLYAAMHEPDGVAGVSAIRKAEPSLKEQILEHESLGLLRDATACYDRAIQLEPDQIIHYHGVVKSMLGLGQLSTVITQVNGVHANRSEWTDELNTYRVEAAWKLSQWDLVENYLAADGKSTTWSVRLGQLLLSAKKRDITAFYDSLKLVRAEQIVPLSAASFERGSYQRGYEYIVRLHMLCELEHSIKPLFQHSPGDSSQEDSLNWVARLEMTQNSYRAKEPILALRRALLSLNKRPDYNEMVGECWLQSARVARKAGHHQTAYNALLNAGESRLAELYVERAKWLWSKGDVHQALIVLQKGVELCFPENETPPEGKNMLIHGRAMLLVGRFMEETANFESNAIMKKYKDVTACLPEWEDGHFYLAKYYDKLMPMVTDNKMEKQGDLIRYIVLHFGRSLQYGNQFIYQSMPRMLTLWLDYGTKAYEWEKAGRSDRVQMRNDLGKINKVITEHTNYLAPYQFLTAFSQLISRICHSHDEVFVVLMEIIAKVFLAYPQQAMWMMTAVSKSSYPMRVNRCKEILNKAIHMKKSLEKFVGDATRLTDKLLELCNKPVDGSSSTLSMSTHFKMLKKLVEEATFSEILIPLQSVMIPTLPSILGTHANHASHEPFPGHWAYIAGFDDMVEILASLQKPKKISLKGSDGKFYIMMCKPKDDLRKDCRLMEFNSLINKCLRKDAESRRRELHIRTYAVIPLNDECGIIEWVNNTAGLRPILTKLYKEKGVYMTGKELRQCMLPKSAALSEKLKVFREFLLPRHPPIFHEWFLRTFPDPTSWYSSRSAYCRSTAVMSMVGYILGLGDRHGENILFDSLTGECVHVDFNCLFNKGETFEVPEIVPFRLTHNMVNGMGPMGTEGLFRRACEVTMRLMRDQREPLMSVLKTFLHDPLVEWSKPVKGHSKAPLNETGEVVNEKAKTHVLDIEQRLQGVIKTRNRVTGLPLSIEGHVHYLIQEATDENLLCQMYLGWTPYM
UniProt P23771: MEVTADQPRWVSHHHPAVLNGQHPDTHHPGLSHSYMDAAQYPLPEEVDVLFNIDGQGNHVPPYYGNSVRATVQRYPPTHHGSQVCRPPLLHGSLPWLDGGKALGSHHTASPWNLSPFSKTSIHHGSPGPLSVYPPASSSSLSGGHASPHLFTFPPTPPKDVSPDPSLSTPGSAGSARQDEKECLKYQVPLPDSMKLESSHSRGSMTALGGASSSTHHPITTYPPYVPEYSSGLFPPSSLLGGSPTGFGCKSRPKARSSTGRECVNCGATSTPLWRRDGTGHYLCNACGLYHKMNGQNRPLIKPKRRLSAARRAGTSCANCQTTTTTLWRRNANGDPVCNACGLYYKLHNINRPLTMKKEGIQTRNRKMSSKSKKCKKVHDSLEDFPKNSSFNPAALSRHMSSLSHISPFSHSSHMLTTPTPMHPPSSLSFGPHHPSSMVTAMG

Results are given in words; binding and its absence hold for the method and conditions named. In cells and extracts the contact can be indirect. Some entries that bind do so weakly or less than the wild type.

The target in experiment [1] is T1, Chk1 (human (endogenous in primary CD4+ T cells)) (UniProt O14757).
T1 sequence: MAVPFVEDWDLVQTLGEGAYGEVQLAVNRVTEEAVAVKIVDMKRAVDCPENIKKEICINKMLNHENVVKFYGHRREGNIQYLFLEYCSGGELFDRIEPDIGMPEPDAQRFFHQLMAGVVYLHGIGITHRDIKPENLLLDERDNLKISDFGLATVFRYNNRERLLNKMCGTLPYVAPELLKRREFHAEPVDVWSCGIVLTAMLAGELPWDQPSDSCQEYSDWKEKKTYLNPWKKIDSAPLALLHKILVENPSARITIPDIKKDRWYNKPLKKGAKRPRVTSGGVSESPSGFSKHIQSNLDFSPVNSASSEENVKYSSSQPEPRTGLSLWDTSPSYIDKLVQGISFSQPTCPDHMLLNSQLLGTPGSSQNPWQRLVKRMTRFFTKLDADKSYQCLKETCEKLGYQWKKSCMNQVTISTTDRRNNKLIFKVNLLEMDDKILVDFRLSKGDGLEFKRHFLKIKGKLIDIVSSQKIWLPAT
As to the kind of experiment: co-IP; Chk1 antibody (E250, Abcam) on Protein G beads, incubated overnight at 4 °C with RIPA lysates of CD27/CD45RA defined CD4+ T cell subsets; western blot for GATA3 and PGC1α. A general note: In western blotting, separated proteins are transferred to a membrane and probed.

In experiment [2] the target is Serine/threonine-protein kinase ATR (ATR) (human (endogenous in primary CD4+ T cells)) (UniProt Q13535). The experiment is described as above.
The target in experiment [3] is T2, peroxisome-proliferator-activated receptor γ coactivator-1α (PGC1α) (human (endogenous in primary CD4+ T cells)) (UniProt Q9UBK2).
T2 sequence: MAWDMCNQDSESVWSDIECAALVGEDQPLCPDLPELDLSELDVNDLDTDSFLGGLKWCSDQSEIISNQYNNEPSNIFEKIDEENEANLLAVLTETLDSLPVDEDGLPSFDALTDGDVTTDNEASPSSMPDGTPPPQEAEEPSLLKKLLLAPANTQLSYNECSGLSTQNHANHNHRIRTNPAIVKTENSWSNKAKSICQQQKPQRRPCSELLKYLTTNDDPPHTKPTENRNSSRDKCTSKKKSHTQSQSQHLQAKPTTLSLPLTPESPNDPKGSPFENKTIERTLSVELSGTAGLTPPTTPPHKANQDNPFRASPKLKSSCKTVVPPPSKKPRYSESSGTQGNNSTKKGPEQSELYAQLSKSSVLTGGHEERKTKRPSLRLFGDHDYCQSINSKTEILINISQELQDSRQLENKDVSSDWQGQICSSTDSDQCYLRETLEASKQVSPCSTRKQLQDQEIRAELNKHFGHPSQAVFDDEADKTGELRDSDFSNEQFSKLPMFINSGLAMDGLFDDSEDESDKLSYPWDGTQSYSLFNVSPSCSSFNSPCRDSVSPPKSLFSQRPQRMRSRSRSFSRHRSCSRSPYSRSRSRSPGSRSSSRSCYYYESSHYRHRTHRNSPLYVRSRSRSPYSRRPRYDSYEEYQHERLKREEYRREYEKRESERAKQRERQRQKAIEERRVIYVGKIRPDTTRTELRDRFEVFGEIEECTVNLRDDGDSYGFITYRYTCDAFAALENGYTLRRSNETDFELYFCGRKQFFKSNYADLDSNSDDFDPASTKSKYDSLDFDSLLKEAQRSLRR
In words: co-IP; pull down of PGC1α after control or GATA3 siRNA knockdown; blot for ATR.

On to “GATA binding protein 3 (GATA3) (from UniProt P23771 1-443)”, for which the binding result in experiment [1] and in experiment [2] was “binds” in each case.

Consider “Serine/threonine-protein kinase ATR (ATR) (from UniProt Q13535 1-2644)”, for which the binding entry in experiment [3] is “binds”.
